# Assay results taken from PubChem BioAssay AID504327 (National Center for Advancing Translational Sciences (NCATS), 2011).
# The chains behind the UniProt entries cited, without tags or fusion partners.
# UniProt Q92830, whole entry, looked up: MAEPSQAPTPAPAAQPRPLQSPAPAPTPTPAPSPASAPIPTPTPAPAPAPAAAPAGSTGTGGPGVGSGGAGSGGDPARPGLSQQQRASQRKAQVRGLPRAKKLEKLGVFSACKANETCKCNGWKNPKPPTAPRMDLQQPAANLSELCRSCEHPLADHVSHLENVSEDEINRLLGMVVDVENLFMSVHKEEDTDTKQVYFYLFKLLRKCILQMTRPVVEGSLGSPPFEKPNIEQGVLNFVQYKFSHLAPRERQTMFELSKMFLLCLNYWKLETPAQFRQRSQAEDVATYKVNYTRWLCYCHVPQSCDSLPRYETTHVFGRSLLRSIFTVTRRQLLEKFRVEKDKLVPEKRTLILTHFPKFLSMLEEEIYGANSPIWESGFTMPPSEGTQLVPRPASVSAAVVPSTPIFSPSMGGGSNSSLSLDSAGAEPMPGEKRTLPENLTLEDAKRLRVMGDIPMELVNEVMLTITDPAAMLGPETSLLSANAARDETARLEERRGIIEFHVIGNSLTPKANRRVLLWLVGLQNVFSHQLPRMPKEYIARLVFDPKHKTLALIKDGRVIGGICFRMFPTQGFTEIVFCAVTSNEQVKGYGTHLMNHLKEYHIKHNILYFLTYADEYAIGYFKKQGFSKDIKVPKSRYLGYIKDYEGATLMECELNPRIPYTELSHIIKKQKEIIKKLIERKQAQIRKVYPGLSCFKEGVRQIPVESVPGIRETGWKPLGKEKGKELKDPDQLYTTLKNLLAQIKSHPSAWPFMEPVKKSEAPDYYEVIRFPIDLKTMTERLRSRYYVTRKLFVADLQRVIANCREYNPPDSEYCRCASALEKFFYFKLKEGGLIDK
# Out of some 390,000 compounds screened, about 820 (0.21%) were called active. This list was built around the results that the source calls inconclusive (neither active nor inactive); the mix of calls is not that of the screen. Calls follow the shape of the dose curve; as a rule, active = well fitted inhibition curve with a large enough effect; inconclusive = small, poorly fitted or top-dose-only effect, or another doubt; inactive = no such curve, though single readings can be large or run the other way. Potencies of inconclusive entries are doubtful fits and often do not repeat.
# Molecular target: Histone acetyltransferase KAT2A (Homo sapiens) (UniProt Q92830)
# Test: qHTS Assay for Inhibitors of GCN5L2
# Conditions: GCN5L2 HAT assay, ThioGlo1 CoA-SH fluorescence; activity change, negative = inhibition: at 58.9 µM (top of the series) unless noted
# Summary of the method: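 Preincubate 20nM GCN5L2 with compound 15 min, RT → add 50uM ThioGlo1 + 75uM H3(1-25) + 70uM acetyl-CoA → read fluorescence 0 and 20 min. Primary qHTS; fluorescent artifacts likely.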
# % is scaled to controls: 0 for no effect and ±100 for the full control effect; potency is read from the fitted curve at half-maximal effect.
SMILES,Potency,"activity change, negative = inhibition"
CC(C)c1ccc(N(C(=O)c2csnn2)C(C(=O)NC(C)(C)C)c2ccncc2)cc1 (stereo not drawn),"inconclusive: 0.708 µM [inhibitor, single point]",–
CC(=O)NCCc1c(Cc2ccccc2)[nH]c2ccccc12,inactive,–
O=C(Nc1ccccc1)c1cccc(N2C(=O)C3C4C=CC(C4)C3C2=O)c1 (stereo not drawn),"inconclusive: 44.7 µM [inhibitor, partial curve, poor fit]",–
CCc1cc(C(=O)Nc2ccc(OC)nc2)sc1C,–,inactive: -15.1%
CC(=O)n1c2ccccc2c2nc3ccccc3nc21,"inconclusive: 0.158 µM [inhibitor, full curve, poor fit]",–
O=C(CCSc1ccccc1)OCn1nnc2ccccc2c1=O,"inconclusive: 7.08 µM [inhibitor, single point]",–
CCOc1cc(/C=N/O)ccc1OCc1ccc(C)cc1,–,inactive: -7.84%
O=C(Nc1nc(-c2ccccc2)ns1)c1ccncc1,"inconclusive: 10 µM [inhibitor, partial curve, poor fit]",–
C[C@@H](NC(=O)c1cc2c([nH]c3ccccc32)c(-c2ccccc2)n1)C(=O)O,–,inactive: -1.91%
COCc1ccc(C(=O)N2CCCC(N(C)CCc3ccc(OC)c(OC)c3)C2)s1 (stereo not drawn),"inconclusive: 39.8 µM [inhibitor, partial curve, poor fit]",–
Brc1ccc(-c2csc(NNC3=NCCCCC3)n2)cc1,"inconclusive: 0.562 µM [inhibitor, single point]",–
Cc1ccc(NC(=O)N[C@H](C(=O)O)C(C)C)c(C)c1,–,inactive: 0.832%
CCOC(=O)/C(C(=O)Nc1ccc(Cl)cc1Cl)=C1/NC(C)(C)Cc2ccccc21,–,inactive: 23.5%
CC(=O)Nc1ccc(NC(=O)CC(C)n2ccc(C)n2)cc1 (stereo not drawn),–,inactive: -2.08%
CCn1c(SCC(=O)NC2CCCC2)nnc1-c1ccccn1,"inconclusive: 8.91 µM [inhibitor, partial curve]",–
COc1ccc(C(C)C)cc1S(=O)(=O)Nc1ccc(Cl)cn1,"inconclusive: 31.6 µM [inhibitor, single point]",–
O=C(c1cc2ccccc2oc1=O)N1CCCC1,"inconclusive: 39.8 µM [inhibitor, single point]",–
Cc1cc(C(=O)Nc2ccc3c(c2)OCO3)no1,"inconclusive: 1.26 µM [inhibitor, full curve]",–
Cc1ccc(N(C)C(=O)c2sc3nc4n(c(=O)c3c2C)CCCC4)cc1C,"inconclusive: 39.8 µM [inhibitor, single point]",–
CCCCN(CC)C(=O)c1cccc(Cl)c1,"inconclusive: 1.78 µM [inhibitor, partial curve]",–
O=c1c(-c2ccccc2)c(-c2ccccc2)oc2cc(O)cc(O)c12,"inconclusive: 10 µM [inhibitor, partial curve]",–
CCc1cc(=O)oc2cc(C)cc(OCC(=O)NC(Cc3ccc(Cl)cc3)C(=O)O)c12 (stereo not drawn),"inconclusive: 39.8 µM [inhibitor, single point]",–
Cc1cc(N)n(Cc2ccc(Cl)cc2)n1,"inconclusive: 8.91 µM [inhibitor, single point]",–

SMILES,Potency,"activity change, negative = inhibition"
CCOC(=O)C1CCN(C(=O)c2ccccc2NC(=O)c2nsc3ccccc23)CC1,–,inactive: -10.2%
CCOc1ccc(NS(=O)(=O)c2c(C)nc3sc(C)c(C)n3c2=O)cc1,–,inactive: -13%
Cc1cccn2c(=O)c3cc(C(=O)NCCN4CCOCC4)c(=N)n(CCc4ccccc4)c3nc12,–,inactive: -16.7%
COc1ccc(CN2C(=O)c3ccccc3C2C(=O)NC2CCCC(C)C2C)c(OC)c1 (stereo not drawn),–,inactive: -10.9%
COC(=O)COc1ccc(-c2nnc(Nc3ccc(O)cc3)c3ccccc23)cc1,–,inactive: -0.0427%
CCCc1cc(=O)oc2c3c(ccc12)OCN(Cc1ccccc1OC)C3,"inconclusive: 39.8 µM [inhibitor, single point]",–
CCC(C(=O)NCCC(C)C)N(Cc1ccccc1Cl)C(=O)c1snc(C(N)=O)c1N (stereo not drawn),"inconclusive: 6.31 µM [inhibitor, partial curve, poor fit]",–
CC(C)c1csc(CN2CCN(Cc3ccc(F)cc3)C(CCO)C2)n1 (stereo not drawn),"inconclusive: 15.8 µM [inhibitor, partial curve, poor fit]",–
COc1ccc(N2CCN(C(=O)CCCOc3cc(=O)n(C)c4ccccc34)CC2)cc1,"inconclusive: 0.112 µM [inhibitor, full curve, poor fit]",–
C=CCc1c(C)[nH]c(=S)c(C#N)c1C,–,inactive: -25.4%
Clc1cc(Cl)c2nc(N3CCCCC3)sc2c1,"inconclusive: 10 µM [inhibitor, partial curve, poor fit]",–
CCn1cc(S(=O)(=O)Nc2ccc(C)c(Cl)c2)cn1,"inconclusive: 0.562 µM [inhibitor, partial curve, poor fit]",–
COc1ccc2ccccc2c1C1CC(=O)N2CN(Cc3ccco3)CSC2=C1C#N (stereo not drawn),"inconclusive: 35.5 µM [inhibitor, single point]",–
COC(=O)CN1C(=O)[C@H]2[C@@H](/C=C/c3ccccc3)N3C(=O)CN(Cc4ccccc4)C(=O)[C@@]3(C)[C@H]2C1=O,–,inactive: -21.5%
Cn1ccsc1=NC(=O)c1ccc([N+](=O)[O-])o1,"inconclusive: 0.794 µM [inhibitor, full curve, poor fit]",–
Cc1ccc(C)c(S(=O)(=O)Nc2ccc(O)c3ccccc23)c1,–,inactive: -6.69%
O=C(NCc1ccccc1)c1ccc(NC(=O)C2CCCO2)cc1 (stereo not drawn),"inconclusive: 0.794 µM [inhibitor, single point]",–
C#CCOC(=O)CCCNc1ccc([N+](=O)[O-])cc1[N+](=O)[O-],–,inactive: -12%
CCCNc1c(F)c(F)c2c(C)c3ccccc3nc2c1F,"inconclusive: 0.891 µM [inhibitor, partial curve, poor fit]",–
O=S(=O)(c1ccc(Cl)cc1)c1nnn2c1nc(NC1CCCC1)c1sccc12,"inconclusive: 31.6 µM [inhibitor, single point]",–
O=C(O)CN(CC(=O)O)Cc1cc2c(-c3ccccc3C(=O)O)c3cc(CN(CC(=O)O)CC(=O)O)c(=O)cc-3oc2cc1O,"inconclusive: 22.4 µM [inhibitor, partial curve]",–
Cc1cccn2c(=O)nc(SCC(=O)NCc3ccc4c(c3)OCO4)nc12,"inconclusive: 0.631 µM [inhibitor, single point]",–
Cc1cccc2cc(=O)[nH]c(C)c12,"inconclusive: 0.708 µM [inhibitor, full curve, poor fit]",–

# No new results follow: an excerpt of the list.
SMILES,Potency,"activity change, negative = inhibition"
C=CCc1c(C)[nH]c(=S)c(C#N)c1C,–,inactive: -25.4%
Clc1cc(Cl)c2nc(N3CCCCC3)sc2c1,"inconclusive: 10 µM [inhibitor, partial curve, poor fit]",–
CCn1cc(S(=O)(=O)Nc2ccc(C)c(Cl)c2)cn1,"inconclusive: 0.562 µM [inhibitor, partial curve, poor fit]",–
COc1ccc2ccccc2c1C1CC(=O)N2CN(Cc3ccco3)CSC2=C1C#N (stereo not drawn),"inconclusive: 35.5 µM [inhibitor, single point]",–

# Further results

SMILES,Potency,"activity change, negative = inhibition"
CCOC(=O)c1sc(N)nc1C(C)C,"inconclusive: 0.794 µM [inhibitor, single point]",–
COc1ccccc1C1C2=C(CCCC2=O)N(CC(=O)O)C2=C1C(=O)CCC2,"inconclusive: 5.62 µM [inhibitor, partial curve]",–
C/C(CC(=O)Nc1ccc(Cl)cc1C(F)(F)F)=N\NC(=O)c1cccs1,"inconclusive: 31.6 µM [inhibitor, single point]",–
CCCCNc1c(-c2ccc(SC3CCCCC3)cc2)nc2cnccn12,"inconclusive: 14.1 µM [inhibitor, partial curve]",–
O=c1c(C=NCc2ccccc2)c(NCc2ccccc2)nc2ccccn12,"inconclusive: 0.794 µM [inhibitor, single point]",–
Cc1ccc2nc(N3C(=O)C(O)=C(C(=O)c4ccc(C)o4)C3c3ccc(O)cc3)sc2c1 (stereo not drawn),"inconclusive: 39.8 µM [inhibitor, single point]",–
NC(=O)CSc1nc(C23CC4CC(CC(C4)C2)C3)nc2ccccc12,"inconclusive: 0.891 µM [inhibitor, full curve, poor fit]",–
C#CCOCCOCCOCCNc1nc(N2CCN(C(=O)CCCCCCCCCCNC(=O)[C@H]([C@@H](C)CC)n3cc(CCCCCN)nn3)CC2)nc(N2CCN(C(=O)CCCCCCCCCCNC(=O)[C@@H]([C@H](C)O)n3cc(C)nn3)CC2)n1,–,inactive: -8.14%
CCCCCCn1cnc2c(oc3nc4c(cc32)CCCC4)c1=O,"inconclusive: 39.8 µM [inhibitor, single point]",–
CCOc1ccc(-n2c(SCc3nc(-c4ccc(C)cc4)no3)nnc2-c2ccncc2)cc1,–,inconclusive: -30.3% [inhibitor]
COc1ccccc1-n1cnnc1SCC(=O)c1cc(C)n(Cc2cccs2)c1C,–,inactive: -5.91%
CCC(C)Oc1ccc(/C=C/c2[nH]c(=O)[nH]c(=O)c2[N+](=O)[O-])cc1OC (stereo not drawn),"inconclusive: 39.8 µM [inhibitor, single point]",–
NC(=O)c1ccc(NC(=O)C2CCCO2)cc1 (stereo not drawn),"inconclusive: 7.08 µM [inhibitor, single point]",–
CC(C)SCCCOc1ccc(C(C)(C)C)cc1,"inconclusive: 39.8 µM [inhibitor, single point]",–
CSc1ccccc1NC(=O)c1noc2c1CCC2,"inconclusive: 5.01 µM [inhibitor, full curve, poor fit]",–
COc1ccccc1CCC(=O)OCC(=O)NC1CCCCC1,"inconclusive: 22.4 µM [inhibitor, partial curve, poor fit]",–
Cc1nc(NCc2ccco2)c2c3c(sc2n1)CCC3,"inconclusive: 8.91 µM [inhibitor, single point]",–
CCC[n+]1c2ccccc2cc2ccccc21,"inconclusive: 39.8 µM [inhibitor, single point]",–
O=C(CN1CCN(C(c2ccccc2)c2ccccc2)CC1)N1CCOCC1,–,inactive: -5.14%
CCCc1cc(SCC(=O)Nc2c(C)n(C)n(-c3ccccc3)c2=O)n2c(nc3ccccc32)c1C#N,–,inconclusive: -87.2% [inhibitor] [at 0.501 µM]
Cc1ccc(/C=N/NS(=O)(=O)c2ccccc2)o1,–,inactive: 0.577%
C/C(=N\NC(=O)Cc1ccccc1[N+](=O)[O-])c1cccnc1,"inconclusive: 0.794 µM [inhibitor, single point]",–
